Primary screen of a compound library

Chains of the proteins cited; added tags and fusions are not shown.
UniProt E9BF75, entry or part of it: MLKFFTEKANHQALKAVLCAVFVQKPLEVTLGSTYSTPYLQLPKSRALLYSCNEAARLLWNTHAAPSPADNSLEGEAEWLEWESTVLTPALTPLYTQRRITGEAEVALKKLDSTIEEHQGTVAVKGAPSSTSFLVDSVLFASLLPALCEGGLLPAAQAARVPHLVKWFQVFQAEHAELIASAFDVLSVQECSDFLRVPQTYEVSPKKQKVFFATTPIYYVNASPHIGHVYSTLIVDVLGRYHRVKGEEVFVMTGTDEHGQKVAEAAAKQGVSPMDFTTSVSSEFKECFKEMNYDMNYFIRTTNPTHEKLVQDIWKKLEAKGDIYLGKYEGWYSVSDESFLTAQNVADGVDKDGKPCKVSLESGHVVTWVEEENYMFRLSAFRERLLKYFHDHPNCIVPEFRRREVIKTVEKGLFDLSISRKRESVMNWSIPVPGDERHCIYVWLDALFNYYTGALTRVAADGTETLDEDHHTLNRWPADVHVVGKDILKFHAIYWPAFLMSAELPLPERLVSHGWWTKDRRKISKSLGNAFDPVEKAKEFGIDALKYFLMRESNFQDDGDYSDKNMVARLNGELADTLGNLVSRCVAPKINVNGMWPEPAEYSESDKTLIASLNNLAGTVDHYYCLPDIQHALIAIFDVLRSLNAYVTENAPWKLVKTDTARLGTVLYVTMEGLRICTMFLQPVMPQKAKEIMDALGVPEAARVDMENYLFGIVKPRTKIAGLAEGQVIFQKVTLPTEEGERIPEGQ

From ChEMBL document CHEMBL3988442, “University of Dundee, Small-Polar-MMV Screening Library” (2021).

A: 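Assay on Mycobacterium tuberculosis, filed only as a heat shock assay from Cornell; the read-out is not stated. The concentration is filed as 10 mM, unlikely as a test dose, so the dose is not known. The record gives no direction; compounds that gave an IC50 in retests scored well above the rest, so higher reads as stronger inhibition. About 69,000 compounds were tested under these conditions; 1.4% (about 930) showed 50% or more at least once.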
B: 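Primary screen of methionyl-tRNA synthetase; the read-out is not stated. Target: Methionyl-tRNA synthetase (putative), Leishmania donovani (UniProt E9BF75). The test concentration is not given. The values are filed as inhibition. Of about 68,000 compounds tested this way, about 24 (0.035%) reached 50% or more in at least one test.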

All values are in %.
The controls that fix the scale are not given in the record; negative values are as filed.
This is an unselected part of the compounds tested.

Result for O=C(Nc1cc(C(F)(F)F)c[nH]c1=O)C1CCNCC1 was A: -2.926%; B: 8.639%.
Result for O=C(NC1CCC1)[C@@H]1CCO[C@@H]2CCN(CCc3ccccc3)C[C@H]21 was B: 10.48%.
Result for COc1ccc(NC(=O)CSc2nc(C)c(C)c(C)c2C#N)cn1 was A: 29.01%; B: 13.03%.
Result for O=C(c1ccccc1)N1CCO[C@@H]2CN(Cc3ccc[nH]3)C[C@@H]2C1 was B: 17.57%.
Result for Cc1c(Br)cnn1CC(=O)Nc1ccon1 was A: 20.92%; B: 13.88%.
Result for Cc1cccc(O[C@H]2COCCN(Cc3sc(C)nc3C)C2)n1 was A: -22.66%; B: 6.84%.
Result for Cc1oc(-c2ccco2)nc1CN1CCc2cnc(C(C)C)nc2C1 was A: 18.91%; B: 16.51%.
Result for CC(=O)N1CCC(C(=O)Nc2nc(C3CC3)cs2)CC1 was A: -14.47%; B: 14.38%.
Result for COCC(=O)N1CCC2(CCCN(Cc3ccc(Cl)cc3)CC2)CC1 was A: 4.989%; B: 13.07%.
Result for Cn1ccnc(Sc2ccc(O)cc2)c1=O was A: -4.743%; B: 11.02%.
Result for Cc1cc(CN2CCN(CC3CC3)[C@@H]3CS(=O)(=O)C[C@@H]32)ccc1F was B: 10.61%.
Result for CCN(CCc1nc2cc(C)ccc2[nH]1)C(=O)[C@@H](N)COC was A: -13.34%; B: 2.481%.
Result for O=C(CN1CCOc2ccc(Cl)cc21)NCCCn1ccnc1 was A: -3.626%; B: 13.53%.
Result for COc1ccc(C2CCCCCN2S(=O)(=O)N(C)C)cc1 (stereo not shown) was A: 68.3%; B: 10.62%.
Result for [H][C@]12CC[C@@]3(N=C(CC)N(CCOC)C3=O)[C@@]1([H])CN(C(=O)NCC(C)C)C2 was A: 5.453%.
Result for O=C(N1CCOCC1)[C@@]12CCO[C@@H]1CCN(Cc1ccccc1F)C2 was B: 8.714%.
Result for COCCN1C[C@@H]2CN(Cc3ccoc3)CCC[C@]2(C(=O)O)C1 was B: 14.38%.
Result for N#CC1(NC(=O)c2nccc3ccccc23)CCC1 was A: -15.99%; B: 13.17%.
Result for c1ccc(CN2CCC(NCCSc3cnn[nH]3)C2)cc1 (stereo not shown) was A: -25.51%; B: 13.73%.
Result for Cn1ccc2c(C(=O)N3CCC4(CCOC4)C3)cccc21 (stereo not shown) was A: -4.275%; B: 10.14%.
Result for COc1ccc(S(=O)(=O)Cc2cc(C)on2)cc1 was A: 11.63%; B: -2.32%.
Result for CC(=O)N1CCOC(c2cncc(CCC(N)=O)n2)C1 (stereo not shown) was A: 16.58%; B: 7.874%.
Result for Cc1noc(C)c1CNCC1COCc2c(-c3ccoc3)nnn2C1.O=C(O)C(F)(F)F (stereo not shown) was A: -7.958%.
Result for COC(=O)C(NC(=O)c1cc(F)cc(F)c1)c1cccnc1 (stereo not shown) was A: -20.73%; B: 13.94%.
Result for Cc1cccc(CN2C[C@@H]3OCCN(c4ccnc(N(C)C)n4)[C@@H]3C2)c1 was B: 17.18%.
Result for Cc1ccc(C(C)N(C)CCS(=O)(=O)CCC(N)=O)cc1 (stereo not shown) was A: 68.62%; B: 10.63%.
Result for CC(=O)NCC(=O)N1CCN(Cc2cccnc2)c2ncccc2C1 was A: 0.5269%; B: 15.38%.
Result for CC(C)C1CN(C(=O)c2ccccc2)CCS1 (stereo not shown) was A: -12.8%; B: 1.863%.
Result for CC(CN1CCCC1=O)NC(=O)Nc1ccccc1Cn1cccn1 (stereo not shown) was A: -6.208%; B: 8.086%.
Result for CN(C)C1CC2(CCN(C(=O)C3(C#N)CC3)CC2)c2ccccc21 (stereo not shown) was B: 12.89%.
Result for CCc1ccc(CN2C[C@@H]3OCCN(c4ccnc(N(C)C)n4)[C@@H]3C2)o1 was B: 20.5%.
Result for Cc1cnn(C2CCCN(C(=O)c3cn(-c4ccccc4)nn3)C2)c1 (stereo not shown) was A: -16.65%; B: 20.22%.
Result for [H][C@@]12C[C@@H](c3nc(C)no3)CN(S(C)(=O)=O)[C@]1([H])CCO2 was A: -5.757%.

3 of the entries, repeated:

{"compound": "CC(C)C1CN(C(=O)c2ccccc2)CCS1", "stereo": "stereo not shown", "A": -12.8, "B": 1.863}
{"compound": "COc1ccc(NC(=O)CSc2nc(C)c(C)c(C)c2C#N)cn1", "A": 29.01, "B": 13.03}
{"compound": "c1ccc(CN2CCC(NCCSc3cnn[nH]3)C2)cc1", "stereo": "stereo not shown", "A": -25.51, "B": 13.73}